Source: the supplement of paper PMC10849652
The list shows a part of the results. Residues, ends and D or L forms follow the SMILES beside them. *: point of attachment. Cbz = O=C(OCc1ccccc1)*

The chains behind the UniProt entries cited, without tags or fusion partners. Where a name states a change or a piece, a line headed by the entry shows the natural chain unless it says otherwise.
UniProt Q96P16: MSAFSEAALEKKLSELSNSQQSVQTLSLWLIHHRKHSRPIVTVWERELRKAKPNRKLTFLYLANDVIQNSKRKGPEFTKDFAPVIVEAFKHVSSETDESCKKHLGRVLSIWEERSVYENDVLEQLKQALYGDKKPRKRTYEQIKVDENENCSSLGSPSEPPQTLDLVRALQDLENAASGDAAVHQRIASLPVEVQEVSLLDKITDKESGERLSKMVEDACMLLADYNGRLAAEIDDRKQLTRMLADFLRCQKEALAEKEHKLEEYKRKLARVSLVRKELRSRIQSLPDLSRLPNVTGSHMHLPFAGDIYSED
UniProt Q6P087: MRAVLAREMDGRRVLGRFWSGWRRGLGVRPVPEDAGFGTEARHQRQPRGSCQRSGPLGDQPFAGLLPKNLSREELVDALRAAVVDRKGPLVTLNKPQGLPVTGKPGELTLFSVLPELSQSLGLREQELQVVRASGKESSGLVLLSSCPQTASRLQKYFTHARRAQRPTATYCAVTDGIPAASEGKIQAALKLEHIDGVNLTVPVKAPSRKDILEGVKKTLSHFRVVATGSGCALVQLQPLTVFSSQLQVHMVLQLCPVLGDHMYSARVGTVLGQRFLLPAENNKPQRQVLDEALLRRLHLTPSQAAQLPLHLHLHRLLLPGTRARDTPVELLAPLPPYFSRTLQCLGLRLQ
UniProt Q9H7B2: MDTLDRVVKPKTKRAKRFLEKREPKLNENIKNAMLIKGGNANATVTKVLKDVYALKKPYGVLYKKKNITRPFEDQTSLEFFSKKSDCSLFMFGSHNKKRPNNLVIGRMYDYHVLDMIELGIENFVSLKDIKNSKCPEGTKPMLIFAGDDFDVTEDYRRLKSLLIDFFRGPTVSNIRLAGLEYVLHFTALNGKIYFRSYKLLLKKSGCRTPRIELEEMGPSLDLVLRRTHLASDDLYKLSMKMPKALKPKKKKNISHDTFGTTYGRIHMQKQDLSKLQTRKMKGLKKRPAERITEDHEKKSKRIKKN
UniProt Q96EP0: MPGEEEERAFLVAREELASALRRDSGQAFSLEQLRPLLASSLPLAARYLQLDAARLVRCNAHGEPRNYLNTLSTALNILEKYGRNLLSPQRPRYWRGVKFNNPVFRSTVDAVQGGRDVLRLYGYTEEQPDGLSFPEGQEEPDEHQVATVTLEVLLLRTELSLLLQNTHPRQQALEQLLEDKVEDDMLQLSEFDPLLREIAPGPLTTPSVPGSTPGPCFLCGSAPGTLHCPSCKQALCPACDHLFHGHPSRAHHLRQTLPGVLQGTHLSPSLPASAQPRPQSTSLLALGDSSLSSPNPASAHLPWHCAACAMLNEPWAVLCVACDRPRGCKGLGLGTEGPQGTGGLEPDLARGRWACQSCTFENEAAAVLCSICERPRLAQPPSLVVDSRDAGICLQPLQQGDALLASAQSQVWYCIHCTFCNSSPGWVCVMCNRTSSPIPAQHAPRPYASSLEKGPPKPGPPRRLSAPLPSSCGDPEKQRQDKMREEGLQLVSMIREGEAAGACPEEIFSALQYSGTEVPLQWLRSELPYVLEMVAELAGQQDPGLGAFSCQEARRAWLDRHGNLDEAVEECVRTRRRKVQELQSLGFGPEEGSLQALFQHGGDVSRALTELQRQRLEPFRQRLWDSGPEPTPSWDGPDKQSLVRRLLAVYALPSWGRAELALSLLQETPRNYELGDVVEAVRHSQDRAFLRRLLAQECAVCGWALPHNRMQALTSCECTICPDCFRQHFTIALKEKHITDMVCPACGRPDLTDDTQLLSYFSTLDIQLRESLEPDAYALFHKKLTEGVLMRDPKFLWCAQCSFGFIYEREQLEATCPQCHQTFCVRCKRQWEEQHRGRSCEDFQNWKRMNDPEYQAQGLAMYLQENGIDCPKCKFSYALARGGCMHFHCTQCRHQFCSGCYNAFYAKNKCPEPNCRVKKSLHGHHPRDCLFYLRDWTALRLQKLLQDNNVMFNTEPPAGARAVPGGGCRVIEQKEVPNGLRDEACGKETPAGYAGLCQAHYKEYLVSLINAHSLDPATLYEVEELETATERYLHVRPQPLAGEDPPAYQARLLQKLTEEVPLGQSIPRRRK
UniProt Q96CM3: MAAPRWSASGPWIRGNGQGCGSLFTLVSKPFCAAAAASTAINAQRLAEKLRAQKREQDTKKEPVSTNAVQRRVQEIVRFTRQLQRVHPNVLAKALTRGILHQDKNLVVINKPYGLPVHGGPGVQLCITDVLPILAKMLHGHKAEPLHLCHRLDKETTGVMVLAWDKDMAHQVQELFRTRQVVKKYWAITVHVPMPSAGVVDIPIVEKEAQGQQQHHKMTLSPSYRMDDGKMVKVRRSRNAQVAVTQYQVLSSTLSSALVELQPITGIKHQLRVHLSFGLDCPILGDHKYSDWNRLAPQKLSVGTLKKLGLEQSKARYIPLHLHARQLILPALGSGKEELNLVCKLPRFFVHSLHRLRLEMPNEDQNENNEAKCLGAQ
UniProt P08922: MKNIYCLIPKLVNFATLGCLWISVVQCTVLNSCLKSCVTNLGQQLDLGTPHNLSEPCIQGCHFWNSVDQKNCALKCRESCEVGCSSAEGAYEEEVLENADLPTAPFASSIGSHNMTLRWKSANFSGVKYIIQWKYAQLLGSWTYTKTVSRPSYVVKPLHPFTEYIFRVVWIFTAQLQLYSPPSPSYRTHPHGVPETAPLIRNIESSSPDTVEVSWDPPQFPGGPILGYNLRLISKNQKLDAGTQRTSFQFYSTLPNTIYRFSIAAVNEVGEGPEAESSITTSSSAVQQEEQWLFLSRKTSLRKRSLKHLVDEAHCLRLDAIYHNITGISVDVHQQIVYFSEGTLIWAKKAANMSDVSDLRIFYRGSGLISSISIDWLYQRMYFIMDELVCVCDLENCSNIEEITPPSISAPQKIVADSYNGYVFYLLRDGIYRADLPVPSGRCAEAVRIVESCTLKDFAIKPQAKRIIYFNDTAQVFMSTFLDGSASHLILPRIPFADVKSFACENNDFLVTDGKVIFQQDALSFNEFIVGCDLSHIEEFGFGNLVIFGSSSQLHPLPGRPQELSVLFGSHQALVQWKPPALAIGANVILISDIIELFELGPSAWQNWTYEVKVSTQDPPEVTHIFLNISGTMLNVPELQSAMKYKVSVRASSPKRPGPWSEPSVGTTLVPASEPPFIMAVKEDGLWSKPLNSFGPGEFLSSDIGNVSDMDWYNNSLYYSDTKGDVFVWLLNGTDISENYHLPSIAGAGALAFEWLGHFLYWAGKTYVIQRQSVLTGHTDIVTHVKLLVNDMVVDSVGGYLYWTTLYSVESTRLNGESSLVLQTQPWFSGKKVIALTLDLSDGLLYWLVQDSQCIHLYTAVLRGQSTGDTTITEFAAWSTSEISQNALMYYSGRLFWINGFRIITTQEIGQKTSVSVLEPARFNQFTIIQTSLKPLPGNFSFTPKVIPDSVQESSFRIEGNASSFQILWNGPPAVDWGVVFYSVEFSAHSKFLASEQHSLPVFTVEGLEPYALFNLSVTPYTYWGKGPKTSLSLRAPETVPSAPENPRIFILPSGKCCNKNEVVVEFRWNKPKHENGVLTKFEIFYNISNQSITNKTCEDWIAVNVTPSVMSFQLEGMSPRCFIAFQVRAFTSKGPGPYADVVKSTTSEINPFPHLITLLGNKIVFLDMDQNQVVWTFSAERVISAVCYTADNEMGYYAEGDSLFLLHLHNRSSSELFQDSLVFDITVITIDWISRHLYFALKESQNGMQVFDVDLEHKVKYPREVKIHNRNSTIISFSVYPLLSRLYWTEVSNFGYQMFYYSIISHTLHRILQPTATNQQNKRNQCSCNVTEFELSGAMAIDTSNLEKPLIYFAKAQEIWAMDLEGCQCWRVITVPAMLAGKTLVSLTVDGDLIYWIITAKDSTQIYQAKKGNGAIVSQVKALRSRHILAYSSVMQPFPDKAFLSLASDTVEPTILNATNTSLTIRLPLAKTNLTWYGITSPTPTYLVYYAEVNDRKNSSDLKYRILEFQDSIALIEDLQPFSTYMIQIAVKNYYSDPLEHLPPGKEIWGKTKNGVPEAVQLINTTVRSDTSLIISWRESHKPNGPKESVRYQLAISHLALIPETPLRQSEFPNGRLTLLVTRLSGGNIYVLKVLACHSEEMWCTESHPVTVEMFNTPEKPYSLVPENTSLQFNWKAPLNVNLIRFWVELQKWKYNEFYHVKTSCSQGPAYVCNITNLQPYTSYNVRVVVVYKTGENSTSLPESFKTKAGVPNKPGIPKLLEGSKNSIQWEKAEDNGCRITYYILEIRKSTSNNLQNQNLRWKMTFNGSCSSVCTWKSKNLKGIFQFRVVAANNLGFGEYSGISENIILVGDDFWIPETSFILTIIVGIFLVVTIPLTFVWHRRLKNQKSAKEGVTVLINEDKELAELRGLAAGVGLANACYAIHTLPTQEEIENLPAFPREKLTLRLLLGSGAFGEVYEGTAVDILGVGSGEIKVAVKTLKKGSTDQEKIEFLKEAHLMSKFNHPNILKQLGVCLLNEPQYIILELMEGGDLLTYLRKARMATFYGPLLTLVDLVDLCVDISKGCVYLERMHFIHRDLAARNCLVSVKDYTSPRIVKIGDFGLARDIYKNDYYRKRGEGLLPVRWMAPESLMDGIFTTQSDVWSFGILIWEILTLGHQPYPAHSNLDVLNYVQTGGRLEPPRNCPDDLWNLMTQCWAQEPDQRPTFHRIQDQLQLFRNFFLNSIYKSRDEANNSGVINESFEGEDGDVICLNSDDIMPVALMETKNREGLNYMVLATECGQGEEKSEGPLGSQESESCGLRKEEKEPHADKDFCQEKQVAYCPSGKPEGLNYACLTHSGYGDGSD
UniProt Q9H4P4: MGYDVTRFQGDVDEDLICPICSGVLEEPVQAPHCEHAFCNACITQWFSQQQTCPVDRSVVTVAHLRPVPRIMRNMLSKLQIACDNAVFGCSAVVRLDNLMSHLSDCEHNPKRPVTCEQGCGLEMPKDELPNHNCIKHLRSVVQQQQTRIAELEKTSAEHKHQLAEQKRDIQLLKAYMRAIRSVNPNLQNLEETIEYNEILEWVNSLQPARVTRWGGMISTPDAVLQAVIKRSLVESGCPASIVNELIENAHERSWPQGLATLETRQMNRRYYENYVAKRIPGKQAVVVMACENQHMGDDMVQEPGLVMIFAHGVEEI
UniProt Q5M7Z0: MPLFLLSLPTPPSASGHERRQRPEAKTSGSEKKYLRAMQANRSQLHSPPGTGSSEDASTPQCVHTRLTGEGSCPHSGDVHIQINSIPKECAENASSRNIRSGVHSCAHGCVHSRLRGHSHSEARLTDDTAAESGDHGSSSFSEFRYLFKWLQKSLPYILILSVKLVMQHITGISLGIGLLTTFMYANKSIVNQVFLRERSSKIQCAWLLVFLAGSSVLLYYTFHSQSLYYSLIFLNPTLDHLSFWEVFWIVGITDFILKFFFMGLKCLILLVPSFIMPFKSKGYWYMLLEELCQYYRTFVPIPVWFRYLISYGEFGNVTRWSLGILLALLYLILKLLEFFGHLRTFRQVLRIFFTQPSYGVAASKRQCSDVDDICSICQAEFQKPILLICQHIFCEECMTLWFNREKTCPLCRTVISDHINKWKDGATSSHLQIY
UniProt P56182: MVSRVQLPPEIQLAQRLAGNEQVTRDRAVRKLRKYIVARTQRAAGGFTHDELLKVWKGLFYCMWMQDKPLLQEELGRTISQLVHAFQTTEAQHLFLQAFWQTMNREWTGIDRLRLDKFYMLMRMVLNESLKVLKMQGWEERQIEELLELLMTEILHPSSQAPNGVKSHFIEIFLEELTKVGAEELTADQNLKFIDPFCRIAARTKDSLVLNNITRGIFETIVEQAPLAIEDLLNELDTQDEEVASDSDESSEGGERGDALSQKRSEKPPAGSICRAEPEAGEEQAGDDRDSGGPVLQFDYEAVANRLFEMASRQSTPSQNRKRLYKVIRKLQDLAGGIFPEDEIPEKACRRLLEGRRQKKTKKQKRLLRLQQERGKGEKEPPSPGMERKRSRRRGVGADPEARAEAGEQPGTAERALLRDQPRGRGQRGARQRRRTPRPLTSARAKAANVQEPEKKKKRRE

Experiments:
Assay in all cases: log2 fold change, soluble protein after heating vs DMSO (PISA); higher = thermal stabilisation; K562 cells, 10 uM, 30 min; active = over 0.2 and 3.5 SD of the protein, either way, in both replicates (recomputed)
[1] = compound: CC(=O)c1cnc2ccc(-c3cc(Cl)c(O)c(Cl)c3)nc2c1N[C@H]1CC[C@H](CN(C)C)CC1
In short: (§1)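 K562 cells at 2×10^6 cells/mL were exposed to 10 μM compound for 30 min, then aliquots were heated for 3 min across 48°C-58°C, pooled, and extracted in PBS containing 0.5% NP-40 at 4°C. The supernatant after 21,000xg for 90 min was taken as soluble protein and measured by TMTpro 16plex LC-MS/MS with channel sums equalised. Thermal stability is reported relative to control samples, with values from duplicates. Fold changes are given on a log2 scale.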

ralimetinib = compound: CC(C)(C)Cn1c(N)nc2ccc(-c3[nH]c(C(C)(C)C)nc3-c3ccc(F)cc3)nc21 [ralimetinib]
In short: as §1

[2] = compound: CC(C)(O)CC(=O)NCCn1ccc2ncnc(Nc3ccc(Oc4cccc(C(F)(F)F)c4)c(Cl)c3)c21
In short: as §1

[3] = compound: CC(C)C1=C2N=C(C=C(N2N=C1)NCC3=CC=CC=C3)NCCCCCCN
In short: as §1

[4] = compound: CC(C)C[C@@H](C=O)NC(=O)[C@H](CC(C)C)NC(=O)[C@H](CC(C)C)NC(=O)OCc1ccccc1
In short: as §1

[5] = compound: CC1=C(C2=C(C=C1)C(=O)C3=CC=CC=C3N2CCCN)C
In short: as §1

[6] = compound: CC1=C(C(CC(=O)N1)C2=CC=C(C=C2)C(F)(F)F)C(=O)NC3=C(C=C4C(=C3)C=NN4)F
In short: as §1

ibrutinib = compound: C=CC(=O)N1CCC[C@@H](n2nc(-c3ccc(Oc4ccccc4)cc3)c3c(N)ncnc32)C1 [ibrutinib]
In short: as §1

IRAK-1-4 Inhibitor I = compound: C1COCCN1CCN2C3=CC=CC=C3N=C2NC(=O)C4=CC(=CC=C4)[N+](=O)[O-] [IRAK-1-4 Inhibitor I]
In short: as §1

pinometostat = compound: CC(C)N(C[C@H]1O[C@@H](n2cnc3c(N)ncnc32)[C@H](O)[C@@H]1O)[C@H]1C[C@@H](CCc2nc3cc(C(C)(C)C)ccc3[nH]2)C1 [pinometostat]
In short: as §1

Measured: log2 fold change

RPRD1A (UniProt Q96P16)
inactive: [1] -0.187 | ralimetinib -0.071 | [2] -0.217 | [3] -0.028 | [4] 0.076 | [5] 0.107

RPUSD3 (UniProt Q6P087)
inactive: [1] -0.042 | [6] 0.089

RPF2 (UniProt Q9H7B2)
inactive: [3] 0.104

RPL10 (UniProt F8W7C6)
inactive: ibrutinib -0.049 | [2] 0 | [3] -0.089 | [6] 0.073 | [5] -0.353

RPS13 (UniProt P62277)
active: [5] -0.759
inactive: IRAK-1-4 Inhibitor I -0.096 | ibrutinib 0.035 | [1] 0.103 | ralimetinib 0.13 | [2] 0.071 | [3] -0.031 | [4] 0.137 | pinometostat 0.345

RNF31 (UniProt Q96EP0)
inactive: [2] -0.076 | [3] 0.031 | [6] 0.084 | [5] 0.028

RPS6KA2 isoform 2 (UniProt Q15349)
active: ralimetinib -0.492
inactive: IRAK-1-4 Inhibitor I 0.001 | ibrutinib -0.066 | [1] -0.178 | [2] -0.082 | [3] -0.082 | [4] 0.07 | pinometostat 0.01 | [5] 0.006

RPS3A (UniProt D6R9B6)
inactive: [1] -0.124 | [5] -0.363

RPP30 (UniProt Q5VU11)
inactive: IRAK-1-4 Inhibitor I -0.052 | ibrutinib 0 | ralimetinib -0.042 | [3] 0.011 | [4] 0.008 | pinometostat 0.047 | [6] 0.209

RPS2 (UniProt P15880)
active: [5] -0.682
inactive: IRAK-1-4 Inhibitor I -0.101 | ibrutinib 0.042 | [1] 0.085 | ralimetinib 0.055 | [2] 0.019 | [3] -0.004 | [4] 0.061 | pinometostat 0.222

RPS3 (UniProt P23396)
inactive: IRAK-1-4 Inhibitor I -0.091 | ibrutinib 0.02 | [1] 0.051 | ralimetinib 0.034 | [2] 0.005 | [3] -0.096 | [4] 0.016 | pinometostat 0.128
active: [5] -0.497

RPL7L1 (UniProt Q6DKI1)
inactive: IRAK-1-4 Inhibitor I 0.239 | ibrutinib 0.103 | ralimetinib 0.23 | [2] 0.162 | [4] 0.368 | pinometostat 0.259 | [6] 0.048

RPUSD4 (UniProt Q96CM3)
inactive: [1] 0.144 | ralimetinib 0.172 | [2] 0.067 | [4] 0.107 | [5] -0.342

RPS6KA3 (UniProt P51812)
active: ralimetinib -0.359
inactive: IRAK-1-4 Inhibitor I 0.03 | ibrutinib -0.048 | [1] -0.194 | [2] -0.061 | [3] -0.076 | [4] 0.121 | pinometostat 0.011 | [5] 0.001

ROR2 (UniProt Q01974)
inactive: IRAK-1-4 Inhibitor I -0.003 | ibrutinib -0.014 | ralimetinib 0.045 | [2] -0.058 | [3] -0.018 | [4] -0.001 | pinometostat 0.045 | [5] 0.115
active: [1] -0.72

RPS19 (UniProt M0R2L9)
inactive: [1] -0.083 | [5] -0.177

RNF40 (UniProt O75150)
inactive: ibrutinib -0.242 | ralimetinib 0.024 | [3] 0.021 | [4] 0.129 | [5] -0.098

ROS1 (UniProt P08922)
inactive: IRAK-1-4 Inhibitor I 0 | ibrutinib -0.062 | [1] 0.028 | [3] 0.118 | pinometostat 0.064 | [6] 0.128

RNF41 (UniProt Q9H4P4)
inactive: ibrutinib -0.104 | [1] 0.082

Random excerpt: 2 records from the list.
RPL7L1 (UniProt Q6DKI1)
inactive: IRAK-1-4 Inhibitor I 0.239 | ibrutinib 0.103 | ralimetinib 0.23 | [2] 0.162 | [4] 0.368 | pinometostat 0.259 | [6] 0.048

RPS3 (UniProt P23396)
inactive: IRAK-1-4 Inhibitor I -0.091 | ibrutinib 0.02 | [1] 0.051 | ralimetinib 0.034 | [2] 0.005 | [3] -0.096 | [4] 0.016 | pinometostat 0.128
active: [5] -0.497

Next part:

RNFT1 (UniProt Q5M7Z0)
inactive: ralimetinib 0.035 | [2] 0.021 | [3] -0.161 | [4] 0.003 | [6] 0.221

RRP1 (UniProt P56182)
inactive: IRAK-1-4 Inhibitor I -0.159 | ralimetinib 0.092 | [3] 0.099 | [4] 0.265 | pinometostat 0.082
